The list does not hold the whole screen: it is rich in T/C values a quarter to a half above the control, in often repeated tests (any T/C) and in doses without a T/C. Further doses and runs are listed elsewhere. T/C gives the treated animals as a percentage of the vehicle group. Some entries give survivors of the animals treated and no T/C: the source files T/C as zero there, which appears to mark a toxic dose or a test without result, not a measured value. Some doses without a T/C left all or most animals alive at the check, yet need not have been tolerated: the source hardly ever lists a survival T/C far under the control, and the zero likely stands for such cases as well. Survivors were counted at the toxicity check, usually on the fifth day, unless a day is given; later deaths do not show. Schedule codes are those of the source, taken here to give the interval after Q, in days (D) or hours (H), and the number of doses after X. Some molecules as drawn cover several salts, stereoisomers or complexes of the source; a dose is that of the sample tested. For survival time, the PubChem record calls one and a half times the control and up active, and a quarter to a half above the control has no call in these data; cut-offs in other NCI protocols can differ. Some T/C values carry the count of animals alive at the toxicity check (mostly the fifth day); without a count, all were alive then. Some entries hold several experiments; the results are listed from low to high.
System: BDF1 mice, P388 leukemia ip, median survival T/C
Test: NCI In Vivo Anticancer Drug Screen. Data for tumor model P388 Leukemia (intraperitoneal) in B6D2F1 (BDF1) mice
Conditions: T/C endpoint: median survival time, higher T/C = longer survival
Outline: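 Mice carrying the transplantable tumour receive compound or vehicle. Survival is followed in each arm, and the treated measure is divided by the vehicle measure.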

[1] = dose: 200.0 mg/kg/injection, schedule: Q04DX003 (ip), vehicle: saline with Tween-80
[2] = dose: 50.0 mg/kg/injection, schedule: Q01DX009 (ip), vehicle: saline with Tween-80
[3] = dose: 200.0 mg/kg/injection, schedule: Q01DX009 (ip), vehicle: saline with Tween-80
[4] = dose: 400.0 mg/kg/injection, schedule: Q01DX009 (ip), vehicle: saline with Tween-80
[5] = dose: 100.0 mg/kg/injection, schedule: Q04DX003 (ip), vehicle: saline with Tween-80
[6] = dose: 100.0 mg/kg/injection, schedule: Q01DX009 (ip), vehicle: Klucel (hydroxypropylcellulose) (HPC)
[7] = dose: 100.0 mg/kg/injection, schedule: Q01DX009 (ip), vehicle: saline with Tween-80
[8] = dose: 25.0 mg/kg/injection, schedule: Q01DX009 (ip), vehicle: saline with Tween-80
[9] = dose: 6.25 mg/kg/injection, schedule: Q01DX009 (ip), vehicle: saline
[10] = dose: 12.5 mg/kg/injection, schedule: Q01DX009 (ip), vehicle: saline
[11] = dose: 100.0 mg/kg/injection, schedule: Q01DX009 (ip), vehicle: saline
[12] = dose: 100.0 mg/kg/injection, schedule: Q04DX003 (ip), vehicle: water
[13] = dose: 200.0 mg/kg/injection, schedule: Q04DX003 (ip), vehicle: water
[14] = dose: 400.0 mg/kg/injection, schedule: Q04DX003 (ip), vehicle: Klucel (hydroxypropylcellulose) (HPC)
[15] = dose: 50.0 mg/kg/injection, schedule: Q01DX009 (ip), vehicle: water

## Nc1nc(C=O)c(-c2cccc3ccccc23)c(=O)[nH]1
[1]
  T/C: 127 % of control

## Cc1ccc(NC(=O)Oc2ccc(Br)cc2Br)c([N+](=O)[O-])c1
[2]
  T/C: 126 % of control
[3]
  T/C: 126 % of control
[4]
  T/C: 130 % of control

## Cc1cc(N(CCOS(C)(=O)=O)CCOS(C)(=O)=O)ccc1C=Nc1ccc(-c2csc(Cc3ccccc3)n2)cc1
dose: 12.5 mg/kg/injection, schedule: Q01DX009 (ip), vehicle: Klucel (hydroxypropylcellulose) (HPC)
  T/C: 128 % of control

## Cc1ncc([N+](=O)[O-])n1CCn1nnc2c1CCCC2
[5]
  T/C: 129 % of control

## O=[N+]([O-])c1cc2no[n+]([O-])c2cc1N1CCCCC1
dose: 15.0 mg/kg/injection, schedule: Q01DX009 (ip), vehicle: saline with Tween-80
  T/C: 126 % of control
dose: 30.0 mg/kg/injection, schedule: Q01DX009 (ip), vehicle: saline with Tween-80
  T/C: 138 % of control
dose: 60.0 mg/kg/injection, schedule: Q01DX009 (ip), vehicle: saline with Tween-80
  survivor count: 5 of 7

## C#CCOC1CCCCO1 (configuration not stated)
dose: 150.0 mg/kg/injection, schedule: Q01DX009 (ip), vehicle: saline with Tween-80
  T/C: 125 % of control
dose: 225.0 mg/kg/injection, schedule: Q01DX009 (ip), vehicle: saline with Tween-80
  T/C: 145 % of control
dose: 335.0 mg/kg/injection, schedule: Q01DX009 (ip), vehicle: saline with Tween-80
  T/C: 135 % of control

## [Cl][Pt+2][Cl].[NH-]C1CCC1.[NH-]C1CCC1
[6]
  survivor count: 6 of 6

## CC(=O)N1C(=O)N(Cl)C(=O)C1(c1ccc(Cl)cc1)c1ccc(Cl)cc1
[7]
  T/C: 127 % of control
dose: 160.0 mg/kg/injection, schedule: Q01DX009 (ip), vehicle: saline with Tween-80
  T/C: 127 % of control [5 of 6 alive]
[4]
  survivor count: 4 of 6

## CC(=O)Nc1cscc1NC(C)=O
[8]
  T/C: 126 % of control
[3]
  T/C: 128 % of control

## O=C1NC(c2ccccc2)C(=O)N1CCN(CCCl)CCCl (configuration not stated)
[9]
  T/C: 129 % of control
[10]
  T/C: 134 % of control
dose: 50.0 mg/kg/injection, schedule: Q01DX009 (ip), vehicle: saline
  survivor count: 3 of 6

## COc1ccc2c(C)c3[n+](cc2c1OC)CCc1cc2c(cc1-3)OCO2
dose: 3.12 mg/kg/injection, schedule: Q01DX005 (ip), vehicle: saline with Tween-80
  survivor count: 6 of 6
dose: 6.25 mg/kg/injection, schedule: Q01DX005 (ip), vehicle: saline with Tween-80
  survivor count: 3 of 6
dose: 12.5 mg/kg/injection, schedule: Q01DX005 (ip), vehicle: saline with Tween-80
  survivor count: 3 of 6
dose: 50.0 mg/kg/injection, schedule: Q01DX005 (ip), vehicle: saline with Tween-80
  survivor count: 0 of 6
dose: 100.0 mg/kg/injection, schedule: Q01DX005 (ip), vehicle: saline with Tween-80
  survivor count: 0 of 6
dose: 200.0 mg/kg/injection, schedule: Q01DX005 (ip), vehicle: saline with Tween-80
  survivor count: 0 of 6

## CC(=O)Nc1ccc(Cl)cc1C(=O)c1ccc[nH]1
[11]
  survivor count: 6 of 6

## BrCC[N+]12CC[N+](CCBr)(CC1)C2
[2]
  T/C: 134 and 146 % of control [5 of 6 alive]
[7]
  survivor count: 3 of 6
[12]
  T/C: 131 % of control
[3]
  survivor count: 1 of 6
[13]
  T/C: 140 % of control

## O=I(=O)c1ccccc1
[8]
  T/C: 140 % of control
[6]
  survivor count: 6 of 6
dose: 200.0 mg/kg/injection, schedule: Q01DX009 (ip), vehicle: Klucel (hydroxypropylcellulose) (HPC)
  survivor count: 1 of 6

## Cc1c(Cc2ccccc2)[n+](=O)c2ccccc2n1[O-]
[14]
  T/C: 125 % of control

## CCCN1CCC2(CC1)COCc1ccccc12
dose: 200.0 mg/kg/injection, schedule: Q04DX002 (ip), vehicle: saline with Tween-80
  survivor count: 1 of 6

## CS(=O)(=O)OCCC#N
dose: 25.0 mg/kg/injection, schedule: Q01DX009 (ip), vehicle: saline
  survivor count: 6 of 6
[11]
  survivor count: 6 of 6
dose: 200.0 mg/kg/injection, schedule: Q04DX003 (ip), vehicle: alcohol
  survivor count: 5 of 6
dose: 225.0 mg/kg/injection, schedule: Q01DX009 (ip), vehicle: saline
  survivor count: 0 of 6
dose: 335.0 mg/kg/injection, schedule: Q01DX009 (ip), vehicle: saline
  survivor count: 0 of 6
dose: 400.0 mg/kg/injection, schedule: Q04DX003 (ip), vehicle: alcohol
  survivor count: 0 of 6

## C[n+]1ccc(Nc2ccc(NC(=O)c3ccc(N)cc3)cc2)cc1
dose: 25.0 mg/kg/injection, schedule: Q01DX009 (ip), vehicle: water
  T/C: 144 % of control
dose: 25.0 mg/kg/injection, schedule: Q04DX003 (ip), vehicle: water
  T/C: 126 % of control
[15]
  T/C: 135 % of control
dose: 50.0 mg/kg/injection, schedule: Q04DX003 (ip), vehicle: water
  T/C: 133 % of control
[12]
  T/C: 135 % of control
[13]
  T/C: 133 % of control [5 of 6 alive]

## c1cnc2c3c(ccc2c1)CN(C12CC4CC(CC(C4)C1)C2)CO3
[5]
  T/C: 127 % of control
[1]
  survivor count: 4 of 6

## C=C(CC(N)=O)C(=O)O (tested in a mixture with another compound)
dose: 600.0 mg/kg/injection, schedule: Q01DX003 (ip), vehicle: saline
  T/C: 131 % of control

## COc1ccc(CNCCNCc2ccc(OC)cc2)cc1
[15]
  survivor count: 6 of 6
dose: 200.0 mg/kg/injection, schedule: Q01DX009 (ip), vehicle: water
  survivor count: 5 of 6
[13]
  survivor count: 6 of 6
dose: 400.0 mg/kg/injection, schedule: Q04DX003 (ip), vehicle: water
  survivor count: 3 of 6

## CC(C)=CC(=O)OCC1CC[N+](C)(C)C1 (configuration not stated)
[9]
  T/C: 128 % of control
[10]
  survivor count: 4 of 4
[11]
  survivor count: 0 of 4
dose: 200.0 mg/kg/injection, schedule: Q01DX001 (ip), vehicle: saline
  survivor count: 1 of 6
dose: 400.0 mg/kg/injection, schedule: Q01DX001 (ip), vehicle: saline
  survivor count: 0 of 6
dose: 800.0 mg/kg/injection, schedule: Q01DX001 (ip), vehicle: saline
  survivor count: 0 of 6
dose: 1600.0 mg/kg/injection, schedule: Q01DX001 (ip), vehicle: saline
  survivor count: 0 of 6

## CC(C)CC(CC(C)C)NCC(C)OC(=O)c1ccc(N)cc1 (configuration not stated)
dose: 12.5 mg/kg/injection, schedule: Q04DX003 (ip), vehicle: saline with Tween-80
  survivor count: 6 of 6
dose: 25.0 mg/kg/injection, schedule: Q04DX003 (ip), vehicle: saline with Tween-80
  survivor count: 6 of 6
[2]
  survivor count: 3 of 6
dose: 50.0 mg/kg/injection, schedule: Q04DX003 (ip), vehicle: saline with Tween-80
  survivor count: 5 of 6
[7]
  survivor count: 1 of 6
[5]
  survivor count: 1 of 6

## OC(c1ccc(Cl)cc1)(c1ccc(Cl)cc1)C(F)(F)F
dose: 200.0 mg/kg/injection, schedule: Q01DX009 (sc), vehicle: olive oil, sesame oil, peanut oil
  survivor count: 6 of 6
dose: 400.0 mg/kg/injection, schedule: Q01DX009 (sc), vehicle: olive oil, sesame oil, peanut oil
  survivor count: 6 of 6

## CCCCCCCCCCCCCCC(F)C(=O)O (configuration not stated)
dose: 50.0 mg/kg/injection, schedule: Q01DX009 (ip), vehicle: Klucel (hydroxypropylcellulose) (HPC)
  survivor count: 6 of 6
[6]
  survivor count: 5 of 6
dose: 200.0 mg/kg/injection, schedule: Q04DX003 (ip), vehicle: Klucel (hydroxypropylcellulose) (HPC)
  survivor count: 4 of 6
[14]
  survivor count: 5 of 6

## CCOC(=O)C(C#N)c1cccc(C)c1 (configuration not stated)
dose: 400.0 mg/kg/injection, schedule: Q04DX003 (ip), vehicle: saline with Tween-80
  survivor count: 0 of 6

Source: PubChem BioAssay AID328 (DTP/NCI, 2004)
